{"sequences": {"note": "Protein sequences, listed by entry. Tags and fused reporters are not part of them.", "UniProt P46527": "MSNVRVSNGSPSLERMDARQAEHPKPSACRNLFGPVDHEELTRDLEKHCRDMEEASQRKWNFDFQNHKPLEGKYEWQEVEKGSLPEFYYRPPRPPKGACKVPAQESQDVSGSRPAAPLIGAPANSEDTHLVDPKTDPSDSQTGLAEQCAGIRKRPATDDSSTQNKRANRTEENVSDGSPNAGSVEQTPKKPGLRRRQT"}, "source": "paper PMC9481271", "molecular_target": "T1, semaphorin 3F (UniProt Q13275)", "T1 sequence": "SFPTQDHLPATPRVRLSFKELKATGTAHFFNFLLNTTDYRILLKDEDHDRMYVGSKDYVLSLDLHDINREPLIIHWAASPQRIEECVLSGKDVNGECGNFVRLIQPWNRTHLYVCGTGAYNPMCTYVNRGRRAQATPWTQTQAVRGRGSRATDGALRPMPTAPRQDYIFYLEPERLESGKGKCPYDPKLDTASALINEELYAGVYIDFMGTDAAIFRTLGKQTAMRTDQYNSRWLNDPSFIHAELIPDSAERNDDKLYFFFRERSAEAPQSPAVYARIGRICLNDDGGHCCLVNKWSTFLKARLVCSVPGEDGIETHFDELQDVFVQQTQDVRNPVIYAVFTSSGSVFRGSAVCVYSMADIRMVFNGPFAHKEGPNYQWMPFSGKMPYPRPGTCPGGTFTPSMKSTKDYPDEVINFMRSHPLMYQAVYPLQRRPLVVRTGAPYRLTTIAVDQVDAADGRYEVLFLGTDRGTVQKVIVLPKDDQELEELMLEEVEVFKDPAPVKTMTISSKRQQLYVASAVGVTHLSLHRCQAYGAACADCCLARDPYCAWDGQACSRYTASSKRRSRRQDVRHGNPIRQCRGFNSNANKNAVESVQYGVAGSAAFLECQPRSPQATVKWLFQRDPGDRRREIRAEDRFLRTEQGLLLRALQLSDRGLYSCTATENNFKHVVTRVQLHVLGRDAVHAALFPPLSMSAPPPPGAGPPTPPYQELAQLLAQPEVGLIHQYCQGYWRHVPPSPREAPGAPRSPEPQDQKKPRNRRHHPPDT", "assay": "co-IP; total protein lysates (500 ug) of LoVo cells with SEMA3F OE; IP with anti-SEMA3F antibody and protein A agarose beads at 4°C, 4 washes with cold PBS; rabbit serum as control; Western blot for SEMA3F and P27", "note": "Results are given in words; binding and its absence hold for the method and conditions named. In cells and extracts the contact can be indirect. Some entries that bind do so weakly or less than the wild type.", "data": [{"substance": "p27 (from UniProt P46527 1-198)", "values": [{"measurement": "binding", "value": "binds"}]}]}
